Results: article PMC4645220
These are yes or no findings as the source states them, for the method shown. Binding seen in cells or lysates may run through a third protein. Some binding calls cover weakened binding; strength is not graded here.

By UniProt entry, the sequences of proteins in these tests, tags left out.
UniProt P03372: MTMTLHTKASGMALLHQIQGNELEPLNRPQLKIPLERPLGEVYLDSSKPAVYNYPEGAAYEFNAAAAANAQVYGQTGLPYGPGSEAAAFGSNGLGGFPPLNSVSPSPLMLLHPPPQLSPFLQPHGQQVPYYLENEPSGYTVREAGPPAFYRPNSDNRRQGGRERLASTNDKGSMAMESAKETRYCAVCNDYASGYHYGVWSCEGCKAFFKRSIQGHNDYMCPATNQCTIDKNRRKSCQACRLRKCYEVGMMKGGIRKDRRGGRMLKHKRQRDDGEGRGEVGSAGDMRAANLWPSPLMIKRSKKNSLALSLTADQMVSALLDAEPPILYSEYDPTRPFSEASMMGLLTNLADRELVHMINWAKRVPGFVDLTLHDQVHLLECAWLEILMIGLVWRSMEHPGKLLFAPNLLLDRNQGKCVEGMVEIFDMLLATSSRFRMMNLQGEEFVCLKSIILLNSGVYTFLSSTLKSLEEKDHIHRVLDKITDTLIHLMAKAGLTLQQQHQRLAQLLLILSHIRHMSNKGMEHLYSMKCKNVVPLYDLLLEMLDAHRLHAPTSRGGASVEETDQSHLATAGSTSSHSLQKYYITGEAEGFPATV
UniProt O75116: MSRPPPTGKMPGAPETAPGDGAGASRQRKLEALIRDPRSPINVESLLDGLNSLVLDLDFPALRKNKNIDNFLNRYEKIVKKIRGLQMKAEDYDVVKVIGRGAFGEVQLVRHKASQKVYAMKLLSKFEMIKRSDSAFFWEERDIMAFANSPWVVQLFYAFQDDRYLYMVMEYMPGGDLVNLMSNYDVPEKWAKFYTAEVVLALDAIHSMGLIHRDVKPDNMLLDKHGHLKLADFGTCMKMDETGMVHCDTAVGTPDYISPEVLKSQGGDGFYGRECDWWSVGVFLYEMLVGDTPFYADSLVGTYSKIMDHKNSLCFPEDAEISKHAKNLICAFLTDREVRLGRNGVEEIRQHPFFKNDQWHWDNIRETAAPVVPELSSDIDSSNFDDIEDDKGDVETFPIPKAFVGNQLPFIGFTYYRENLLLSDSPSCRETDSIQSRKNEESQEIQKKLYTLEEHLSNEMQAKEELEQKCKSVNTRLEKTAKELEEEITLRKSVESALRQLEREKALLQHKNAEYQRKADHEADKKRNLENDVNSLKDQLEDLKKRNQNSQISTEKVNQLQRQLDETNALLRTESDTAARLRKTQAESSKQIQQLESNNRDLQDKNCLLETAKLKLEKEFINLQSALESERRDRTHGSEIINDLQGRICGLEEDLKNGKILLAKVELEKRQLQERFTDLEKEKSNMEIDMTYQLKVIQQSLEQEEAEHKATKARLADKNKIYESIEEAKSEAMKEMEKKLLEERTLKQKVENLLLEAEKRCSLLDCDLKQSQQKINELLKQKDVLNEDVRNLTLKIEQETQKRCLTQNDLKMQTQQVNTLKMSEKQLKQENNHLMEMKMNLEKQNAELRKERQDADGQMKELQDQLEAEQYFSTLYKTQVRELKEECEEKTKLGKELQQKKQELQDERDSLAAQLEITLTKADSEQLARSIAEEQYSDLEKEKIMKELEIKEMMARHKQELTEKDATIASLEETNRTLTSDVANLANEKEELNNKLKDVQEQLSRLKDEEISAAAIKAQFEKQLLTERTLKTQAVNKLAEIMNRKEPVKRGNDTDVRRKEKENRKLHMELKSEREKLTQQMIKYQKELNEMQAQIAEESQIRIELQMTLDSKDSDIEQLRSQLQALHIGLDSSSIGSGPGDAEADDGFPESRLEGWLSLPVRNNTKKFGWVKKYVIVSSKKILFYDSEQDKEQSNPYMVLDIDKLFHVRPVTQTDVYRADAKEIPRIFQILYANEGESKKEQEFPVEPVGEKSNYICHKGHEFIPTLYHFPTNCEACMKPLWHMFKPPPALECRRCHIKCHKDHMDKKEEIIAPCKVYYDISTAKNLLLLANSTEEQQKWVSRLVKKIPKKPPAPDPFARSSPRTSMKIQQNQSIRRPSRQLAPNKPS

What was measured:
[1] = molecular target: estrogen receptor alpha (human (endogenous in HUVEC)) (UniProt P03372); assay: condition: only cells pretreated with 10 μM ICI 182,780 for 2 h; co-IP; HUVEC protein extracts immunoprecipitated with anti-ERα antibody, blotted for ROCK-II; cells pretreated with 10 μM ICI 182,780 for 2 h, washout, then 0.1% DMSO or 50 μM formononetin for 30 and 60 min
[2] = molecular target: estrogen receptor alpha (human (endogenous in HUVEC)) (UniProt P03372); assay: co-IP; HUVEC protein extracts immunoprecipitated with anti-ERα antibody (1 μg, overnight, 4 °C, Protein G agarose), blotted for ROCK-II; cells treated with 0.1% DMSO or 50 μM formononetin for 15, 30, 45 and 60 min

## Rho-associated protein kinase ROCK-II (from UniProt O75116 1-1388) (enzyme)
[1]
  binding: no binding
[2]
  binding: binds
